Measurements taken from publication PMC8568920, “Serum apolipoprotein A-I potentiates the therapeutic efficacy of lysocin E against Staphylococcus aureus” (Nature Communications, 2021).

Test system: MRSA MR6 strain
Assay: Mouse systemic MRSA infection model, survival ED50
Format: in vivo
Details: ratio of mouse ED50 to in vitro MIC
Method: Mouse protocols followed the Regulations for Animal Care and Use of the University of Tokyo under approval by the Graduate School of Pharmaceutical Science at the University of Tokyo (approval nos. 24–55). Mice were housed in a group of at most five in a cage, kept in a room maintained at 23–24 °C, 55% humidity, and 12 h light/12 h dark cycle. For Table 1, clinically isolated MRSA MR6 strain[47] was cultured overnight, suspended in 7% type II porcine stomach mucin supplemented with 0.2 mM FeNH4-citrate and intraperitoneally administered to mice (ICR, female, 4 weeks of age) at 5.7 × 10^7 colony-forming units. Lysocin E (4–0.25 mg kg^−1), vancomycin (8–0.5 mg kg^−1), linezolid (8–0.5 mg kg^−1), or daptomycin (4–0.25 mg kg^−1) were administered subcutaneously to 5 animals/group at 1 h and 6 h after infection. Mouse survival was assessed after 5 days and ED50 values were calculated by multiple logistic regression analysis. For Fig. 1d, the Newman strain was cultured in TSB overnight and cells (4.0 × 10^7 colony-forming units) were washed in phosphate-buffered saline (PBS) were injected into the tail vein of 8–12-week-old female C57BL/6J wild-type mice or Apoa1 homozygous-deficient mice. After 2 h, lysocin E (0.5 mg kg^−1) was administered subcutaneously. After 24 h, the kidneys were harvested and crushed with a BioMasher II (Nippi Incorporated, Tokyo, Japan). The suspensions were diluted with PBS(−), plated on TSB agar medium and the number of colonies was counted.

Row | SMILES | ED50/MIC
1 | CC(=O)NC[C@H]1CN(c2ccc(N3CCOCC3)c(F)c2)C(=O)O1 [Linezolid, linezolid] | 1.9
2 | CCCCCCCCCC(=O)N[C@@H](Cc1c[nH]c2ccccc12)C(=O)N[C@H](CC(N)=O)C(=O)N[C@@H](CC(=O)O)C(=O)N[C@@H]1C(=O)NCC(=O)N[C@@H](CCCN)C(=O)N[C@@H](CC(=O)O)C(=O)N[C@H](C)C(=O)N[C@@H](CC(=O)O)C(=O)NCC(=O)N[C@H](CO)C(=O)N[C@@H]([C@H](C)CC(=O)O)C(=O)N[C@@H](CC(=O)c2ccccc2N)C(=O)O[C@@H]1C [Daptomycin, daptomycin] | 1.6
3 | CN[C@H](CC(C)C)C(=O)N[C@H]1C(=O)N[C@@H](CC(N)=O)C(=O)N[C@H]2C(=O)N[C@H]3C(=O)N[C@H](C(=O)N[C@H](C(=O)O)c4cc(O)cc(O)c4-c4cc3ccc4O)[C@H](O)c3ccc(c(Cl)c3)Oc3cc2cc(c3O[C@@H]2O[C@H](CO)[C@@H](O)[C@H](O)[C@H]2O[C@H]2C[C@](C)(N)[C@H](O)[C@H](C)O2)Oc2ccc(cc2Cl)[C@H]1O [Vancomycin, vancomycin] | 4.2
